From the supplement of paper PMC8616043 come the findings set out here.

Counter-ions that a name gives are not always drawn. This is one part of the list. Repeats in this data set agree poorly, so a single value says little.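 PR50, a 50-repeat proline–arginine dipeptide protein from C9ORF72 (ALS/FTD), was expressed by transfection in U-2 OS human cells stably carrying a GFP sensor with import and classical export signals. Per-well nuclear-minus-cytoplasm GFP, normalized between in-plate DMSO (low) and PR-only (high), was scored versus other test wells; compounds well below zero were hits reversing PR.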

The test relates to U-2 OS NCT-C biosensor cells expressing PR50. Put plainly: Z-score of normalised NCT-C biosensor translocation index in PR50-expressing cells; higher = more nuclear biosensor (more disrupted nuclear export). As to conditions: 3 µM; 24 h.
On to `Clc1ccc(N2C[C@H]3CC[C@@H](C2)N3)nn1`, for which the Z-score was inactive: -0.365.

Consider `COc1cc2c(cc1OC)C1CC(=O)C(CC(C)C)CN1CC2` (stereo not drawn) [Tetrabenazine], for which the Z-score was inactive: -0.675.

For the molecule `O=C1CCC[C@@H]2[C@H]3CCCN4CCC[C@@H](CN12)[C@@H]34` [Matrine], the Z-score is inactive: -0.602.

On to `Cc1cccc(C)c1NC1=NCCCS1` [Xylazine hydrochloride], for which the Z-score is inactive: -0.522.

For `CCCN1CCC[C@@H](c2cccc(O)c2)C1` [S(-)-3PPP  hydrochloride], the Z-score is inactive: -0.199.

For the molecule `Cc1cc2c(C(C)C)c(O)c(O)c(C=O)c2c(O)c1-c1c(C)cc2c(C(C)C)c(O)c(O)c(C=O)c2c1O` [Gossypol], the Z-score is inactive: -1.41.

As to `O=c1[nH]c2ccccc2n1C1CCN(CCCC(c2ccc(F)cc2)c2ccc(F)cc2)CC1` [Pimozide], the Z-score was inactive: -0.0224.

In the case of `COc1cccc2c1cc([N+](=O)[O-])c1c(C(=O)O)cc3c(c12)OCO3` [Aristolochic acid A], the Z-score is inactive: -0.488.

Consider `CC1=C2C[C@H]3[C@@H](CC=C4C[C@@H](O)CC[C@@]43C)[C@@H]2CC[C@]12O[C@@H]1C[C@H](C)CN[C@H]1[C@H]2C` [Cyclopamine], for which the Z-score is inactive: -0.765.

Consider `c1cc2c(cc1[C@H]1OC[C@H]3[C@@H]1CO[C@H]3c1ccc3c(c1)OCO3)OCO2` [(-)-Asarinin], for which the Z-score is inactive: 0.075.

With `CN(C)C(=O)Oc1ccc[n+](C)c1` [Pyridostigmine Bromide], the Z-score was inactive: -0.25.

As for `CN(C)C(=O)Oc1ccc[n+](C)c1` [Pyridostigmine bromide], the Z-score was inactive: 0.824.

With `C#CCN(C)[C@H](C)Cc1ccccc1` [Selegiline·HCl], the Z-score was inactive: -0.564.

Turning to `CN1[C@@H]2C[C@@H](OC(=O)[C@H](CO)c3ccccc3)C[C@H]1[C@H](O)C2` (racemic) [(+/-)-Anisodamine], the Z-score was inactive: -0.551.

With `Clc1ccc(N2CCN(Cc3c[nH]c4ncccc34)CC2)cc1` [L-745,870  hydrochloride], the Z-score is inactive: -0.126.

Regarding `NCCCNCCSP(=O)(O)O` [Amifostine], the Z-score was inactive: 0.444.

Regarding `c1ccc2c(c1)[nH]c1cnccc12` [Norharmane], the Z-score is inactive: 0.0952.

On to `CC1(C)[C@@H](O)C[C@H]2[C@](C)(O)[C@@H]3CC[C@@H]4[C@@H](O)[C@@]3(C[C@@H](O)[C@@]21O)C[C@@]4(C)O` [Grayanotoxin III], for which the Z-score is inactive: -0.3.

In the case of `CN1[C@@H]2CC[C@H]1C[C@@H](OC(=O)C(CO)c1ccccc1)C2` (stereo partly drawn) [Atropine Sulfate Monohydrate], the Z-score was inactive: 2.18.

As to `CN1[C@@H]2CC[C@H]1C[C@@H](OC(=O)C(CO)c1ccccc1)C2` (stereo partly drawn) [Atropine sulfate], the Z-score was inactive: 0.0353.

As to `CC(C)C[C@H]1C(=O)N2CCC[C@H]2[C@]2(O)O[C@](NC(=O)[C@@H]3C=C4c5cccc6[nH]c(Br)c(c56)C[C@H]4N(C)C3)(C(C)C)C(=O)N12` [(+)-Bromocriptine methanesulfonate], the Z-score was inactive: 1.89.

As to `CC(C)C[C@H]1C(=O)N2CCC[C@H]2[C@]2(O)O[C@](NC(=O)[C@@H]3C=C4c5cccc6[nH]c(Br)c(c56)C[C@H]4N(C)C3)(C(C)C)C(=O)N12` [Bromocriptine mesylate], the Z-score was inactive: -0.281.

Take `CC(C)C[C@H]1C(=O)N2CCC[C@H]2[C@]2(O)O[C@](NC(=O)[C@@H]3C=C4c5cccc6[nH]c(Br)c(c56)C[C@H]4N(C)C3)(C(C)C)C(=O)N12` [Bromocriptine Mesylate]: the Z-score was inactive: -1.64.

As for `COc1cc(C(O)CN)ccc1O` (racemic) [(±)-Normetanephrine hydrochloride], the Z-score is inactive: -0.611.

As for `CCC1=C[C@H]2CN3CCc4c([nH]c5ccccc45)[C@](C(=O)OC)(C2)[C@H]13` [Catharanthine], the Z-score is inactive: -0.516.

Turning to `C#CCOC(=O)C1=CCCN(C)C1` [Arecaidine propargyl ester hydrobromide], the Z-score was inactive: 0.562.

Consider `C[C@H]1CC[C@@H]2N(C1)C[C@H]1[C@@H]3C[C@H]4[C@@H](CC(=O)[C@H]5C[C@@H](O)CC[C@@]54C)[C@@H]3CC[C@H]1[C@]2(C)O` [Imperialine], for which the Z-score is inactive: -0.0369.

As to `C[C@@H]1CC[C@H]2[C@H](C)[C@H]3CC[C@@]4(O)[C@@H]5CC(=O)[C@H]6CC(=O)CC[C@]6(C)[C@H]5C[C@H]4[C@@H]3CN2C1` [Sevedindione], the Z-score is inactive: -0.276.

Consider `NCC(CP(=O)(O)O)c1ccc(Cl)cc1` (stereo not drawn) [Phaclofen], for which the Z-score is inactive: -1.09.

As for `c1ccc(C2CC2)c(OCC2=NCCN2)c1` [Cirazoline hydrochloride], the Z-score was inactive: -0.46.

Turning to `CN1[C@@H]2CC[C@H]1C[C@@H](OC(c1ccccc1)c1ccccc1N)C2` (stereo partly drawn) [Aminobenztropine], the Z-score was inactive: 0.0799.

Turning to `CN1[C@H]2C[C@H](OC(=O)[C@H](CO)c3ccccc3)C[C@@H]1[C@@H](O)C2` [Anisodamine], the Z-score was inactive: -0.382.

For the molecule `CN(C)C(=O)Oc1cccc([N+](C)(C)C)c1` [Neostigmine bromide], the Z-score is inactive: -1.04.

Turning to `CNC(=O)Oc1ccc2c(c1)[C@]1(C)CCN(C)[C@@H]1N2C` [Physostigmine], the Z-score was inactive: 0.151.

In the case of `CNC(=O)Oc1ccc2c(c1)[C@]1(C)CCN(C)[C@@H]1N2C` [(-)-Physostigmine], the Z-score was inactive: 0.273.

For `COc1ccc(C(CN(C)C)C2(O)CCCCC2)cc1` (stereo not drawn) [Venlafaxine hydrochloride], the Z-score was inactive: -0.324.

On to `COc1ccc(C(CN(C)C)C2(O)CCCCC2)cc1` (stereo not drawn) [Venlafaxine·HCl], for which the Z-score was inactive: 0.167.

As to `CCc1c(C(=O)C(N)=O)c2c(OCC(=O)O)cccc2n1Cc1ccccc1` [Varespladib], the Z-score is inactive: 0.478.

For `CC(N)c1cccc(Cl)c1Cl` (racemic) [(±)-2,3-Dichloro- alpha- methylbenzylamine hydrochloride], the Z-score is inactive: 0.391.

Take `COC[C@@H](NC(C)=O)C(=O)NCc1ccccc1` [Lacosamide]: the Z-score was inactive: -0.408.

As to `O=C1C=CC(=O)C=C1` [p-Benzoquinone], the Z-score is inactive: 0.661.

Regarding `COc1ccc2c(c1OC)C(=O)OC2C1c2cc3c(cc2CCN1C)OCO3` (single isomer, unassigned; (+)) [(+)-Hydrastine], the Z-score was inactive: 0.0287.

Consider `C=C1C[C@@H]2[C@H](CC[C@]3(C)C(=O)CC[C@@H]23)[C@@]2(C)C=CC(=O)C=C12` [Exemestane], for which the Z-score was inactive: -0.26.

Turning to `c1ccc(C[N+]23CN4CN(CN(C4)C2)C3)cc1` [Roslin 2], the Z-score was inactive: -0.0101.

Consider `CC(=O)c1c(O)c(C)c(O)c(Cc2c(O)c3c(c(C(=O)/C=C/c4ccccc4)c2O)OC(C)(C)C=C3)c1O` [Rottlerin], for which the Z-score is inactive: -0.903.

Turning to `C=C1[C@@H](C)[C@H]2[C@H](Cc3ccccc3)NC(=O)[C@]23[C@H](OC(C)=O)/C=C/[C@@](C)(O)C(=O)[C@@H](C)C/C=C/[C@H]3[C@@H]1O` [Cytochalasin D], the Z-score was inactive: -0.504.

Take `COc1ccccc1N1CCNCC1` [1-(2-  Methoxyphenyl) piperazine HCl]: the Z-score is inactive: 0.404.

For `CC1=NN=C(c2ccc(N)cc2)c2cc3c(cc2C1)OCO3`, the Z-score was inactive: -0.539.

For the molecule `COc1cc2c(cc1OC)C13CC[N+]4([O-])CC5=CCOC6CC(=O)N2C1C6C5CC34` (stereo not drawn) [Brucine-N-oxide], the Z-score was inactive: 0.103.

Consider `CCCCCCC(=O)CCCCCC/C=C/C[C@@H](O)[C@H](O)[C@@](N)(CO)C(=O)O` [Myriocin], for which the Z-score is inactive: 0.271.

Regarding `C[C@@H]1O[C@@H](O[C@H]2C[C@@H](O)[C@]3(CO)[C@H]4[C@H](O)C[C@]5(C)[C@@H]([C@@H]6COC(=O)C6)CC[C@]5(O)[C@@H]4CC[C@]3(O)C2)[C@H](O)[C@H](O)[C@H]1O` [Dihydroouabain], the Z-score is inactive: -0.000584.

As to `c1ccc2c3c([nH]c2c1)CNCC3` [Noreleagnine], the Z-score was inactive: -0.126.

Turning to `O=C(O)Cc1cnc[nH]1` [Imidazole-4-acetic acid hydrochloride], the Z-score was inactive: 0.153.

Take `O=C(O)[C@@H]1CCN1` [L-azetidine-2- carboxylic acid]: the Z-score is inactive: 0.458.

For the molecule `C[C@](N)(CCP(=O)(O)O)C(=O)O`, the Z-score is inactive: -0.981.

On to `CC(=O)OCC1=C(C(=O)[O-])N2C(=O)[C@@H](NC(=O)CCC[C@@H](N)C(=O)[O-])[C@H]2SC1.[Zn+2]` [Cephalosporin C zinc salt], for which the Z-score is inactive: -0.0844.

As for `CO[C@@H]1C=C2CCN(C)[C@@H]2C2c3cc4c(cc3C(=O)OC21)OCO4` (stereo partly drawn) [Ungerine nitrate], the Z-score is inactive: 1.22.

With `CN1C(=O)CCS(=O)(=O)C1c1ccc(Cl)cc1` (stereo not drawn) [Chlormezanone], the Z-score was inactive: 0.0754.

For the molecule `O=P1(N(CCCl)CCCl)NCCCO1` (stereo not drawn) [Cyclo phosphamide monohydrate], the Z-score was inactive: 3.95.

With `O=P1(N(CCCl)CCCl)NCCCO1` (stereo not drawn) [Cyclophosphamide monohydrate], the Z-score is inactive: 0.396.

Regarding `CCCC[N+]1(C)[C@@H]2C[C@@H](OC(=O)[C@H](CO)c3ccccc3)C[C@H]1[C@@H]1O[C@@H]12` (single isomer, unassigned; (-)) [(-)-Scopolamine,n-Butyl-, bromide], the Z-score was inactive: -1.13.

On to `c1ccc2sc(C3(N4CCCCC4)CCCCC3)cc2c1` [BTCP  hydrochloride], for which the Z-score was inactive: 4.71.

As for `C[C@H]1CC[C@@H]2[C@@H](C)[C@H]3[C@H](C[C@H]4[C@@H]5CC=C6C[C@@H](O[C@@H]7O[C@H](CO)[C@H](O)[C@H](O[C@@H]8O[C@H](CO)[C@@H](O)[C@H](O)[C@H]8O)[C@H]7O[C@H]7O[C@@H](C)[C@H](O)[C@@H](O)[C@H]7O)CC[C@]6(C)[C@H]5CC[C@]34C)N2C1` [α-Solanine], the Z-score was inactive: -0.36.
